Test results published in article PMC8541566.

Key:
[1] = biological target: T1, Pkc1-GFP (from plasmid p2062, pVDG7 PKC1-GFP) (S. cerevisiae) (UniProt P24583); assay: affinity purification with mass spectrometry; Pkc1-GFP isolated with GFP-trap agarose from extracts of untreated DL100 cells (no HU); whole lane digested, LC-MS/MS
T1 sequence: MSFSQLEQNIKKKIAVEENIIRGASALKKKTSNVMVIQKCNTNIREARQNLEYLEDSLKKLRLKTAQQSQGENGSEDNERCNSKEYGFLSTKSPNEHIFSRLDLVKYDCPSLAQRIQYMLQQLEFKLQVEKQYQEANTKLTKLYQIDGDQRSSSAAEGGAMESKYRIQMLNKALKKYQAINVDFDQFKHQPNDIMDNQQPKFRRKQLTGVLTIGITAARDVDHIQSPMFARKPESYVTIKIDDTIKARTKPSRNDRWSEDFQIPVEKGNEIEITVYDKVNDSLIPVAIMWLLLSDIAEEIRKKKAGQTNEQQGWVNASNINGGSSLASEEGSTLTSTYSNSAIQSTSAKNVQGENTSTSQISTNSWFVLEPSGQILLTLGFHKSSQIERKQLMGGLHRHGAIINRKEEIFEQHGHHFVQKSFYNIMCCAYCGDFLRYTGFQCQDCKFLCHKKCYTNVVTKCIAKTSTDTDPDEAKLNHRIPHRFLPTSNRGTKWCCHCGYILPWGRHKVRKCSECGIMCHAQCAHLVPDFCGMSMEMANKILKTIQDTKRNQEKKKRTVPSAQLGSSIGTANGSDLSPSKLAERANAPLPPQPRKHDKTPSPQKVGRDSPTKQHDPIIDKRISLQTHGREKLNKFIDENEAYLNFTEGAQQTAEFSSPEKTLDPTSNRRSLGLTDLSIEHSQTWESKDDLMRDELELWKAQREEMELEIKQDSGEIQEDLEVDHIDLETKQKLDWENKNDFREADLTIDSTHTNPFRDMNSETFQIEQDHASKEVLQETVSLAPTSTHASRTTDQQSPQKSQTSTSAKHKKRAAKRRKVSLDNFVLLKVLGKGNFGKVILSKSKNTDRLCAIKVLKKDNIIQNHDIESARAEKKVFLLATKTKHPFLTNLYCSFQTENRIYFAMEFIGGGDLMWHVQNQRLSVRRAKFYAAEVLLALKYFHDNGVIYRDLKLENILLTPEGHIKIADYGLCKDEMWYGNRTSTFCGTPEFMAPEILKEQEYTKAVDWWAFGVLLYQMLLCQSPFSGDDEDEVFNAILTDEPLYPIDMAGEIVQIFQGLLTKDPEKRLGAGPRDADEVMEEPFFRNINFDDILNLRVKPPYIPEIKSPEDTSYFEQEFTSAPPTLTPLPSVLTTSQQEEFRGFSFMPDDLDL

[2] = biological target: T1, Pkc1-GFP (from plasmid p2062, pVDG7 PKC1-GFP) (S. cerevisiae); assay: affinity purification with mass spectrometry; Pkc1-GFP isolated with GFP-trap agarose from extracts of DL100 cells treated with 250 mM HU for 4 h; whole lane digested, LC-MS/MS

binding [2]: binds
B1: Hrr25 (HO and radiation repair; casein kinase 1 ortholog), endogenous (enzyme, UniProt P29295 1-494)
chain: MDLRVGRKFRIGRKIGSGSFGDIYHGTNLISGEEVAIKLESIRSRHPQLDYESRVYRYLSGGVGIPFIRWFGREGEYNAMVIDLLGPSLEDLFNYCHRRFSFKTVIMLALQMFCRIQYIHGRSFIHRDIKPDNFLMGVGRRGSTVHVIDFGLSKKYRDFNTHRHIPYRENKSLTGTARYASVNTHLGIEQSRRDDLESLGYVLIYFCKGSLPWQGLKATTKKQKYDRIMEKKLNVSVETLCSGLPLEFQEYMAYCKNLKFDEKPDYLFLARLFKDLSIKLEYHNDHLFDWTMLRYTKAMVEKQRDLLIEKGDLNANSNAASASNSTDNKSETFNKIKLLAMKKFPTHFHYYKNEDKHNPSPEEIKQQTILNNNAASSLPEELLNALDKGMENLRQQQPQQQVQSSQPQPQPQQLQQQPNGQRPNYYPEPLLQQQQRDSQEQQQQVPMATTRATQYPPQINSNNFNTNQASVPPQMRSNPQQPPQDKPAGQSIWL
binding [1]: no binding (only cells not treated with HU)

Results are given in words; binding and its absence hold for the method and conditions named. Binding seen in cells or lysates may run through a third protein. Here binding means that the protein was enriched with, or labelled near, the bait; the list need not be complete. For some assays here: No binding means not detected with the bait. Tags and fused reporters may be left off the sequences shown.
